From patent US9102712B2, “Dendrimeric peptides, pharmaceutical compositions and methods of using the same” (New York University, priority 2010, dated 2015)
At least one peptide structure holds a part that was inferred or is arguable (an end, a ring closure or a residue).

What was measured:
[1] = system: S. aureus; format: cell-based; conditions: HI=HD50/IC50, S. aureus
Experimental: (§1) The antibacterial activity of each dendrimer peptide was tested by following standard broth microdilution protocols recommended by the National Committee for Clinical Laboratory Standard (NCCLS 2004). Antibacterial testing was carried out on gram-negative bacteria E. coli (D31) and gram-positive bacteria S. aureus in liquid media Mueller Hinton (MH) Brooth according to literature procedures. Dendrimers were dissolved in PBS buffer (high salt, 150 mM NaCl; low salt, 75 mM NaCl), pH 7.4 to make series of stocks of 2-fold dilution. Cultures were grown overnight on Mueller Hinton (MH) agar plates, and 3 to 5 uniform colonies of each organism were transferred with an inoculating loop to test tubes containing MH broth, and incubated at 37° C. overnight, then diluted until the turbidity matched that of the 0.5 McFarland standard (approximately 1.5×10^8 cells/mL). The resulting solutions were further diluted to give approximately 2×10^4-2×10^5 CFU/mL. […] After these plates were incubated with shaking for 18 hrs at 37° C. to ensure the cultures had reached log phase growth, the absorbance readings were recorded at a wavelength of 600 nm using a Absorbance Microplate Reader BIO-TEK ELX800. The 18-hour absorbance data were used to calculate the percent inhibition for each test condition. […]

[2] = system: E. coli (D31); test: Antibacterial broth microdilution, E. coli; format: cell-based; conditions: HI=HD50/IC50, E. coli
Experimental: as §1

SMILES | S. Aureus HI (hemolytic index) [1] | E. Coli HI (hemolytic index) [2]
N=C(N)NCCC[C@H](N)C(=O)N[C@@H](Cc1c[nH]c2ccccc12)C(=O)NCCCN(CCCCN(CCCNC(=O)[C@H](Cc1c[nH]c2ccccc12)NC(=O)[C@@H](N)CCCNC(=N)N)CCCNC(=O)[C@H](Cc1c[nH]c2ccccc12)NC(=O)[C@@H](N)CCCNC(=N)N)CCCNC(=O)[C@H](Cc1c[nH]c2ccccc12)NC(=O)[C@@H](N)CCCNC(=N)N [POPAM-(WR)4, POPAM-(WR—NH2)3] | 786 | 511
N=C(N)NCCC[C@H](N)C(=O)N[C@@H](Cc1c[nH]c2ccccc12)C(=O)NCCN(CCNC(=O)[C@H](Cc1c[nH]c2ccccc12)NC(=O)[C@@H](N)CCCNC(=N)N)CCNC(=O)[C@H](Cc1c[nH]c2ccccc12)NC(=O)[C@@H](N)CCCNC(=N)N [TAEA-(WR)3, TAEA-(WR—NH2)3] | 3168 | 1485
